Where two headings read alike, the source gives them in different places. Some of these results come from one statement about several compounds together. For some of these results: For at least one compound, name, drawing or mass did not settle the structure.
Assays:
Pyricularia oryzae [1] = format: cell-based; settings: 300 ppm, agar plate, 25° C., seven days, radial growth
Bortytis cinera = test: Greenhouse Bortytis cinera test in tomato, preventive; format: in vivo; settings: 500 ppm; preventive spray on tomato plants, inoculated one day after treatment with Bortytis cinera
Description: Bortytis cinera Test in Tomato
Compounds were dissolved in 2% DMSO/Acetone and then mixed with water to calibrated spray volume of 50 mL. This 50 mL spray solution was poured into the spray bottles for further applications.
(§1) To test the preventive activity of compounds, healthy young tomato plants raised in the greenhouse were sprayed with active compound preparation at the stated application rates inside the spray cabinets using hallowcone nozzles. One day after treatment, the plants were inoculated with spore suspension (2% Malt) containing 1.2×10^6 Bortytis cinera inoculum. The inoculated plants were then kept in greenhouse chamber at 18-20° C. temperature and 90-100% relative humidity for disease expression.
(§2) A visual assessment of compound's performance was carried by rating the disease severity (0-100% scale) on treated plants on 3, 7, 10 and 15 days after application. Efficacy (% control) of the compounds was calculated by comparing the disease rating in the treatment with untreated control. The sprayed plants were also assessed for compound's phytotoxic effects by recording symptoms like necrosis, chlorosis and stunting.

Septoria lycopersici = test: In vitro test Septoria lycopersici (leaf spot of tomato), radial growth on Potato Dextrose Agar; format: cell-based; settings: 300 ppm, agar plate, 25° C., seven days
Description: Septoria lycopersici (Leaf Spot of Tomato):
(§3) Compounds were dissolved in 0.3% DMSO and then added to Potato Dextrose Agar medium just prior to dispensing it into Petri dishes. 5 mL medium with compound in the desired concentration was dispensed into 60 mm sterile Petri-plates. After solidification each plate was seeded with 5 mm size mycelial disc taken form periphery of actively growing virulent culture plate. Plates were incubated in growth chambers at 25° C. temperature and 70% relative humidity for seven days and radial growth was measured.

Phakopsora pachyrhizi = test: Greenhouse Phakopsora pachyrhizi test in soybean, preventive; format: in vivo; settings: 500 ppm; preventive spray on soybean plants, inoculated one day after treatment with Phakopsora pachyrhizi
Description: Phakopsora pachyrhizi Test in Soybean
Compounds were dissolved in 2% DMSO/Acetone and then mixed with water to the calibrated spray volume of 50 mL and poured into the spray bottles for further applications.
as §1, with “soybean” for “tomato”, “suspension” for “suspension (2% Malt)”, “2.1×10^6 Phakopsora pachyrhizi” for “1.2×10^6 Bortytis cinera”, “25°” for “18-20°”, “90%” for “90-100%”
as §2, with “carried out” for “carried”, “with the one of the” for “with”, “plant compatibility” for “phytotoxic effects”

Alternaria solani = test: In vitro test Alternaria solani (early blight of tomato/potato), radial growth on Potato Dextrose Agar; format: cell-based; settings: 300 ppm, agar plate, 25° C., seven days
Description: as §3, with “Alternaria solani (early blight of tomato/potato): Compounds” for “Compounds”, “60%” for “70%”

Rhizoctonia solani = test: In vitro test Rhizoctonia solani (rice sheath blight/potato black scurf), radial growth on Potato Dextrose Agar; format: cell-based; settings: 300 ppm, agar plate, 25° C., seven days
Description: Rhizoctonia solani (Rice Sheath Blight/Potato Black Scurf):
as §3, with “60%” for “70%”

Botrytis cinerea = test: In vitro test Botrytis cinerea (gray mold), radial growth on Potato Dextrose Agar; format: cell-based; settings: 300 ppm, agar plate, 22° C., seven days
Pyricularia oryzae [2] = format: in vivo; settings: 500 ppm; preventive spray on rice seedlings/plants, inoculated one day after treatment with Pyricularia oryzae

| SMILES | control compared to the untreated check (Septoria lycopersici) | control compared to the untreated check (Alternaria solani) | control compared to the untreated check (Rhizoctonia solani) | control compared to the untreated check (Botrytis cinerea) | other results |
| --- | --- | --- | --- | --- | --- |
| CCN(C)C=Nc1cc(Br)c(Oc2cccc(S(C)(=O)=NC(=O)C3CCC3)c2)nc1C (stereo not shown) [Compound 1] |  |  |  |  | control compared to the untreated check (Pyricularia oryzae [1]): more than 70%; control compared to the untreated check (Bortytis cinera): > 70% |
| CCN(C)C=Nc1cc(C)c(S(=O)(=NC#N)c2ccccc2)cc1Cl (stereo not shown) [Compound 3] | more than 70% |  |  |  | control compared to the untreated check (Phakopsora pachyrhizi): > 70% |
| CCN(C)C=Nc1cc(C)c(N=S(C)(=O)c2ccccc2)cc1C (stereo not shown) [Compound 4] | more than 70% | more than 70% |  |  | control compared to the untreated check (Phakopsora pachyrhizi): > 70% |
| CCN(C)C=Nc1cc(C)c(S(=NC(=O)C(F)(F)F)c2ccccc2)cc1Cl (stereo not shown) [Compound 5] | more than 70% | more than 70% | more than 70% | more than 70% |  |
| CCN(C)C=Nc1cc(C)c(Oc2cccc(S(=O)(=NC#N)C(C)C)c2)cc1Cl (stereo not shown) [Compound 8] | more than 70% | more than 70% |  |  |  |
| CCN(C)C=Nc1cc(C)c(Oc2cccc(S(C)(=O)=Nc3ccccc3)c2)cc1Cl (stereo not shown) [Compound 9] | more than 70% | more than 70% |  |  |  |
| CCN(C)C=Nc1cc(C)c(Oc2cccc(S(C)(=O)=NC(=O)C(F)(F)F)c2)cc1Cl (stereo not shown) [Compound 11] | more than 70% | more than 70% | more than 70% | more than 70% |  |
| CCN(C)C=Nc1cc(C)c(Oc2cccc(S(C)(=O)=NC#N)c2)cc1Cl (stereo not shown) [Compound 12] |  |  |  |  | control compared to the untreated check (Pyricularia oryzae [1]): more than 70%; control compared to the untreated check (Bortytis cinera): > 70% |
| CCN=S(C)(=O)c1cccc(Oc2cc(Cl)c(N=CN(C)CC)cc2C)c1 (stereo not shown) [Compound 14] | more than 70% | more than 70% | more than 70% |  |  |
| CCN(C)C=Nc1cc(C)c(S(Cc2ccccc2)=NC#N)cc1Cl (stereo not shown) [Compound 15] |  | more than 70% |  |  | control compared to the untreated check (Phakopsora pachyrhizi): > 70%; control compared to the untreated check (Bortytis cinera): > 70% |
| CCN(C)C=Nc1cc(C)c(S(C)(=O)=NC(=O)c2cn(C)nc2C(F)F)cc1Cl (stereo not shown) [Compound 16] | more than 70% | more than 70% | more than 70% |  |  |
| CCN(C)C=Nc1cc(C)c(S(C)(=O)=Nc2ccccc2)cc1Cl (stereo not shown) [Compound 17] |  |  |  | more than 70% |  |
| CCN=S(=O)(CC1CC1)c1cccc(Oc2cc(Cl)c(N=CN(C)CC)cc2C)c1 (stereo not shown) [Compound 20] |  |  |  | more than 70% |  |
| CCN(C)C=Nc1cc(C)c(S(C)(=O)=Nc2cc(F)cc(F)c2)cc1Cl (stereo not shown) [Compound 22] |  | more than 70% | more than 70% | more than 70% |  |
| CCN(C)C=Nc1cc(C)c(S(C)(=O)=Nc2ccc(S(F)(F)(F)(F)F)cc2)cc1Cl (stereo not shown) [Compound 44] | more than 70% | more than 70% |  |  |  |
| CCN(C)C=Nc1cc(C)c(S(=O)(CC)=NC(=O)c2cccc(F)c2)cc1Cl (stereo not shown) [Compound 52] |  |  |  | more than 70% |  |
| CCN(C)C=Nc1cc(C)c(N=S(=O)(CCC(C)C)c2ccccc2)cc1C (stereo not shown) [Compound 55] |  |  |  |  | control compared to the untreated check (Pyricularia oryzae [2]): > 70% |
| CCN(C)C=Nc1cc(C)c(S(=O)(CC)=Nc2cccc(C(F)(F)F)c2)cc1Cl (stereo not shown) [Compound 60] |  |  |  |  | control compared to the untreated check (Pyricularia oryzae [2]): > 70% |

| SMILES | control compared to the untreated check (Septoria lycopersici) | control compared to the untreated check (Alternaria solani) | control compared to the untreated check (Rhizoctonia solani) | control compared to the untreated check (Botrytis cinerea) | other results |
| --- | --- | --- | --- | --- | --- |
| CCN(C)C=Nc1cc(C)c(S(=O)(CC)=Nc2cccc(C)c2)cc1Cl (stereo not shown) [Compound 63] | more than 70% | more than 70% | more than 70% |  |  |
| CCN(C)C=Nc1cc(Br)c(Oc2cccc(S(C)(=O)=NCC3CCC3)c2)nc1C (stereo not shown) [Compound 69] |  |  |  |  | control compared to the untreated check (Pyricularia oryzae [2]): > 70% |
| CCN(C)C=Nc1cc(C)c(S(C)(=O)=NCc2cccc(C(F)(F)F)c2)cc1Cl (stereo not shown) [Compound 91] | more than 70% | more than 70% |  |  |  |
| CCN(C)C=Nc1cc(C)c(S(C)(=O)=NCc2cccc(OC(F)(F)F)c2)cc1Cl (stereo not shown) [Compound 92] |  |  |  | more than 70% |  |
| CCN(C)C=Nc1cc(C)c(Oc2cccc(S(=O)(CCC(C)C)=NCC3CC3)c2)cc1C (stereo not shown) [Compound 95] | more than 70% | more than 70% | more than 70% | more than 70% |  |
| CCN(C)C=Nc1cc(Br)c(N=S(=O)(CC2CC2)c2ccc(F)cc2)nc1C (stereo not shown) [Compound 107] |  |  |  |  | control compared to the untreated check (Pyricularia oryzae [1]): more than 70%; control compared to the untreated check (Phakopsora pachyrhizi): > 70%; control compared to the untreated check (Bortytis cinera): > 70% |
| CCN(C)C=Nc1cc(Br)c(Oc2cccc(S(=O)(CC)=NC(=O)C3CCC3)c2)nc1C (stereo not shown) [Compound 123] | more than 70% | more than 70% |  |  |  |
| CCN=S(C)(=O)c1ccc(Cc2cc(C)c(N=CN(C)CC)cc2C)cc1 (stereo not shown) [Compound 130] |  |  |  |  | control compared to the untreated check (Pyricularia oryzae [2]): > 70% |
| CCN(C)C=Nc1cc(C)c(Cc2ccc(S(C)(=O)=NC)cc2)cc1C (stereo not shown) [Compound 133] |  | more than 70% |  |  | control compared to the untreated check (Phakopsora pachyrhizi): > 70% |
| CCN(C)C=Nc1cc(C)c(N(C)c2ccc(S(C)(=O)=NCC3CC3)cc2)cc1C (stereo not shown) [Compound 135] |  | more than 70% | more than 70% |  |  |
| CCN(C)C=Nc1cc(C)c(Cc2ccccc2S(C)(=O)=NC)cc1C (stereo not shown) [Compound 137] |  |  |  |  | control compared to the untreated check (Pyricularia oryzae [2]): > 70% |
| CCN(C)C=Nc1cc(C)c(N(C)c2cccc(S(C)(=O)=NC)c2)cc1C (stereo not shown) [Compound 142] | more than 70% | more than 70% | more than 70% | more than 70% | control compared to the untreated check (Bortytis cinera): > 70% |
| CCN(C)C=Nc1cc(C)c(Oc2cccc(S(=N)(=O)C(F)(F)F)c2)cc1Cl (stereo not shown) [Compound 143] |  | more than 70% | more than 70% |  |  |
| CCN(C)C=Nc1cc(C)c(Oc2cccc(S(=O)(=NCC3CC3)C(F)(F)F)c2)cc1Cl (stereo not shown) [Compound 144] |  | more than 70% | more than 70% | more than 70% | control compared to the untreated check (Bortytis cinera): > 70% |
| CCN(C)C=Nc1cc(C)c(Oc2cccc(S(=NC(C)=O)C(F)(F)F)c2)cc1Cl (stereo not shown) [Compound 145] |  |  | more than 70% | more than 70% | control compared to the untreated check (Pyricularia oryzae [1]): more than 70%; control compared to the untreated check (Bortytis cinera): > 70% |
| CCN(C)C=Nc1ccc2c(c1Cl)C(=O)N=S2(=O)Cc1ccccc1 (stereo not shown) [Compound 157] |  | more than 70% |  |  | control compared to the untreated check (Pyricularia oryzae [1]): more than 70%; control compared to the untreated check (Phakopsora pachyrhizi): > 70% |
| CCN(C)C=Nc1ccc2c(c1Cl)C(=O)N=S2(=O)Cc1ccc(F)cc1 (stereo not shown) [Compound 163] |  | more than 70% |  |  | control compared to the untreated check (Phakopsora pachyrhizi): > 70% |

Source: patent US20200148635A1 (priority 2017, published 2020)
